Among the data in patent publication US20230087118A1, “IMIDAZO[1,2-a][sequence] DERIVATIVES AND THEIR USE IN THE TREATMENT OF DISEASE” (priority 2019, published 2023) are IC50 values, retold here.

Chains of the proteins cited; added tags and fusions are not shown.
UniProt Q9NWZ3, whole entry: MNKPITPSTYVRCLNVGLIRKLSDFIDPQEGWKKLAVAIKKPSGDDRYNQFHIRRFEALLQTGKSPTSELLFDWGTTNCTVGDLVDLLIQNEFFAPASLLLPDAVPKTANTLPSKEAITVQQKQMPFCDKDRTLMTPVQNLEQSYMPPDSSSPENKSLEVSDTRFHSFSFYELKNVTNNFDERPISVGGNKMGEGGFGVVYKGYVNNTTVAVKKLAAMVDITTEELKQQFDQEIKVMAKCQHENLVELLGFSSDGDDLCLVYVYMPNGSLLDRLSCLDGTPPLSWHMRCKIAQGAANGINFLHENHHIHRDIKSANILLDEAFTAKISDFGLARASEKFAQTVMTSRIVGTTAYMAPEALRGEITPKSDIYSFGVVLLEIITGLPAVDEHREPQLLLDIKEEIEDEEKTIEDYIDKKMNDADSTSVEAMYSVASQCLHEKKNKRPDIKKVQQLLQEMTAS

The target of this experiment is IRAK4 (Homo sapiens, UniProt Q9NWZ3). Conditions: read-out: IRAK4 Biochemical Assay (1 mM ATP, 2 h) IC50, 100 pM IRAK4, tested form: TFA.

The structures given here were assigned with low confidence; some may be wrong.

The IC50 is the concentration that gives 50% inhibition. Take `CC(C)Oc1cc2nc(C34COC(C)(C3)C4)cn2cc1C(=O)Nc1cc(F)cn(C)c1=O`: the IC50 was found to be 5.2 nM.
